{"source": "PubChem BioAssay AID540256", "about": "(National Center for Advancing Translational Sciences (NCATS), 2011)", "note": "The campaign covered roughly 300,000 compounds. About 3,700 (1.2%) were called active. Inconclusive means that the source gave no clear call. Such entries were picked first, then a sample of the others. Calls follow the shape of the full dose curve; tested in HEK293 cells. Potencies of inconclusive entries are doubtful fits and often do not repeat. Potency is read from the fitted curve at half-maximal effect.", "data": [{"experiment": "qHTS for Inhibitors of binding or entry into cells for Lassa Virus; also: nearly all actives have a fitted effect of over 50% in size", "details": "Lassa virus pseudotype entry inhibition, cell reporter; series mostly up to 37.9 µM", "values": [{"smiles": "Brc1ccccc1CNCCc1ccc2c(c1)OCO2", "Potency": "inconclusive: 14.1 µM [activator, single point]"}, {"smiles": "CC(C)(C)c1ccc(C(=O)N2CCC(C(=O)NCC3CCCO3)CC2)cc1", "note": "(stereo unspecified)", "Potency": "inactive"}, {"smiles": "CCn1cc(C(=O)NCCc2ccccc2)c(=O)c2cc(S(=O)(=O)N(C)C3CCCCC3)ccc21", "Potency": "inactive"}, {"smiles": "CC(C)CN(CC(C)C)C(=O)CN1c2cccc3cccc(c23)S1(=O)=O", "Potency": "inconclusive: 11.2 µM [inhibitor, partial curve, poor fit]"}, {"smiles": "Cc1c(C(=O)Nc2cccc([N+](=O)[O-])c2)csc1-c1ccccc1", "Potency": "inconclusive: 4.47 µM [inhibitor, full curve, poor fit]"}, {"smiles": "Cc1c(C)n(CCCN(C)C)c2ncnc(NC3CCCCC3)c12", "Potency": "inconclusive: 8.91 µM [activator, partial curve, poor fit]"}, {"smiles": "Cc1noc(C)c1C(=O)N1CCCC(C(=O)c2ccc(Cl)cc2)C1", "note": "(stereo unspecified)", "Potency": "inconclusive: 2.82 µM [inhibitor, partial curve, poor fit]"}, {"smiles": "Cc1ccc(S(=O)(=O)NC2=NCN(C)CN2)cc1[N+](=O)[O-]", "Potency": "inactive"}, {"smiles": "Cc1ccc(-n2c(C)nc3c(cnn3-c3ccc(F)cc3)c2=O)cc1C", "Potency": "inactive"}, {"smiles": "O=C(Nc1cccc(Cl)c1Cl)C1CC(=O)N(c2ccc(Br)cc2)C1", "note": "(stereo unspecified)", "Potency": "inactive"}, {"smiles": "COc1ccc(NC(=O)CSc2nc(-c3ccc(F)cc3)[nH]c2-c2ccc(C)cc2)cc1OC", "Potency": "inactive"}, {"smiles": "CCc1ccc2c(CN(C)Cc3ccccc3OC)cc(=O)oc2c1", "Potency": "inconclusive: 11.2 µM [inhibitor, single point]"}, {"smiles": "O=C(O)c1ccc(NC(=O)C2CCCCC2)cc1", "Potency": "inconclusive: 20.6 µM [activator, single point]"}, {"smiles": "COc1ccccc1OCC(=O)N1CCN(C(=O)c2ccco2)CC1", "Potency": "inactive"}, {"smiles": "CNCc1ccccc1Sc1cc(O)ccc1O", "Potency": "inconclusive: 35.5 µM [inhibitor, single point]"}, {"smiles": "COc1cc(OC)cc(C(=O)Nc2cc3c(cc2N2CCCC2)n(C)c(=O)c(=O)n3C)c1", "Potency": "inactive"}, {"smiles": "COc1cccc(/C(O)=C2/C(=O)C(=O)N(Cc3cccnc3)C2c2ccco2)c1", "note": "(stereo unspecified)", "Potency": "inconclusive: 29.1 µM [activator, single point]"}, {"smiles": "CN(C)CCCN(C(=O)c1cc2cc([N+](=O)[O-])ccc2s1)c1nc2cc3c(cc2s1)OCCO3", "Potency": "inconclusive: 35.5 µM [inhibitor, single point]"}, {"smiles": "COC(=O)c1ccc(NC(=O)c2ccc(CN3CCOCC3)cc2)cc1", "Potency": "inactive"}, {"smiles": "CN1CCN(c2ccccc2NC(=O)c2cccs2)CC1", "Potency": "inactive"}, {"smiles": "Cc1ccc(-c2nc(N=Nc3ccc(O)cc3)n[nH]2)cc1", "Potency": "inconclusive: 0.164 µM [activator, full curve, poor fit]"}]}]}
